Experimental findings from PubChem BioAssay AID2685 (National Center for Advancing Translational Sciences (NCATS), 2010) are described below.

A short description of the experiment: qHTS Assay for Lipid Storage Modulators in Drosophila S3 Cells.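 On cell number change: cells counted by Cell Tracker Red CMTPX staining in the red channel.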 Conditions: BODIPY lipid droplet fluorescence, 18-24 h; for cell number change: measured here: cell count max response, cells fed with added oleic acid. Put shortly:
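Drosophila S3 cells loaded with oleic acid (400 uM, as added) and compounds at several concentrations; lipid droplets imaged by 488-nm laser-scanning cytometry, 500–530 nm intensity and object ratio to cell channel. Percent activity normalized to 20 uM Triacsin C.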
(qHTS replaces the single test concentration by a dilution series.)

The mark [1] stands for this setting: measured here: lipid fluorescence (Fed channel) AC50, cells fed with added oleic acid.
The mark [2] stands for this setting: measured here: cell number channel AC50, cells fed with added oleic acid.

This is one part of the list. Further columns of the screen follow, without active or inactive calls. Compounds called inactive in the main read-out are mostly missing here. Words in brackets tell the shape of the fitted curve; partial curves, single points and poor fits give uncertain potencies.

What is called AC50 is the midpoint of the concentration-response curve, whichever way the signal moves. As to `CCOC(=O)N1CCC(NC(=O)CC(NS(=O)(=O)c2ccc(Cl)cc2)c2ccco2)CC1` (stereo not drawn), under setting [1], the AC50 is 0.651 µM [rising, single point].
On to `COc1ccc(NC(=O)Nc2nnc(Cc3ccccc3)s2)cc1`, for which the cell number change is -4.96%.
For the compound `CCc1nc2cc([N+](=O)[O-])c([N+](=O)[O-])cc2[nH]1`, the cell number change turned out to be 20.3%. The half-maximal activity concentration (AC50) under setting [1] is 0.00461 µM [rising, full curve, poor fit].
With `COc1ccc(/C=C2\CCC(C3CCCC3)C2=O)cc1` (stereo not drawn), the cell number change is 12.8%. The half-maximal activity concentration (AC50) under setting [1] was 29.1 µM [rising, single point].
For the compound `COc1cccc(C=Nc2ccc3c(c2)OCCO3)c1O`, the cell number change came out at 0.622%. Moreover, under setting [2], the AC50 was 0.146 µM [falling, full curve, poor fit]. Moreover, the AC50 under setting [1] is 6.51 µM [falling, single point].
Consider `C/C(=N\Nc1ccccc1[N+](=O)[O-])c1ccccc1O`, for which the concentration at half-maximal activity (AC50) under setting [1] was 6.51 µM [falling, single point].
With `COc1ccccc1NC(=O)COC(=O)CC(C)(C)CC1=NS(=O)(=O)c2ccccc2N1`, under setting [1], the AC50 was 29.1 µM [falling, single point].
Consider `CN(CC(=O)Nc1cccc(F)c1)C(=O)CCc1nc2ccccc2c(=O)[nH]1`, for which the cell number change was determined as 15.6%. In addition, the half-maximal activity concentration (AC50) under setting [1] is 18.4 µM [rising, partial curve].
`Cc1cc(C)n2nc(SCc3nnc(-c4ccc(F)cc4)o3)nc2n1`: the cell number change stood at 21.9%. Further, under setting [2], the half-maximal activity concentration (AC50) is 4.11 µM [rising, full curve, poor fit].
In the case of `O=C(COC(=O)c1cc(Cl)cc(Cl)c1)NCCN1C(=O)CSC1=O`, the cell number change is 39.1%. Moreover, under setting [2], the AC50 was 9.2 µM [rising, partial curve]. Besides, the AC50 under setting [1] is 3.66 µM [rising, single point].
Turning to `CN1C(=O)c2ccccc2C(C(=O)NCCCN2CCCC2=O)C1c1c[nH]c2ccccc12` (stereo not drawn), the cell number change worked out at 33.1%.
`CCC1CSC(Nc2ccc(C(=O)/C=C/c3cccc(C)c3)cc2)=N1` (stereo not drawn): the cell number change stood at 17.4%.
For `CC(C)(C)OC(=O)NCCc1nnc(SCc2ccccc2)o1`, the cell number change worked out at 5.85%. In addition, the AC50 under setting [2] is 0.13 µM [rising, full curve, poor fit].
Turning to `COc1ccc(/C=N\NC(=O)/C(=C\Nc2nccc(C)n2)NC(=O)c2ccccc2)cc1`, the concentration at half-maximal activity (AC50) under setting [2] was 0.58 µM [rising, partial curve].
`Cc1oc(-c2ccccc2Cl)nc1CSCC(=O)O`: the concentration at half-maximal activity (AC50) under setting [1] is 0.461 µM [falling, full curve].
For the compound `CC(C)c1ccc(/C=C/C(=O)NC2CCCCC2)cc1`, the cell number change is -49.4%. In addition, the AC50 under setting [2] is 29.1 µM [falling, single point]. Further, the AC50 under setting [1] is 23.1 µM [falling, single point].
As to `CCc1cccc(CC)c1NC(=O)CSc1nnc(CCC(=O)O)c(=O)[nH]1`, the cell number change worked out at 21.3%.
As for `Cc1ccc(NC(=O)CN(C)C(=O)c2ccccc2OCc2c(C)noc2C)cc1`, the AC50 under setting [1] was 0.58 µM [falling, single point].
For `CC(=O)N1CCc2cc(S(=O)(=O)NCCC(=O)NCCc3ccc(C)cc3)ccc21`, the cell number change is -8.79%. The half-maximal activity concentration (AC50) under setting [1] was 2.59 µM [rising, full curve].
Turning to `C=CCn1c(SCC(=O)NCc2ccccc2)nnc1-c1ccccc1O`, the cell number change was -9.51%. Under setting [1], the AC50 was 0.00461 µM [falling, full curve, poor fit].
In the case of `NC[C@H]1O[C@H](O[C@H]2[C@H](O)[C@@H](O[C@H]3O[C@H](CO)[C@@H](O)[C@H](N)[C@H]3O)[C@H](N)C[C@@H]2N)[C@H](N)C[C@@H]1O`, the cell number change was 16%. Moreover, the AC50 under setting [2] is 0.0651 µM [rising, full curve, poor fit].
As for `CC(C)(C)CC(C)(C)NC(=S)Nc1ccc2nc(-c3ccccn3)c(-c3ccccn3)nc2c1`, the cell number change is -11.4%. Further, the AC50 under setting [1] was 1.46 µM [rising, partial curve, poor fit].
For the compound `O=P(CO)(Cc1ccccc1)Cc1ccccc1`, the cell number change came to 34.4%. The AC50 under setting [2] was 29.1 µM [rising, single point].
Consider `Cc1ccc(C2c3c(-c4ccccc4O)n[nH]c3C(=O)N2Cc2ccncc2)cc1` (stereo not drawn), for which the cell number change stood at 93.7%. Further, the AC50 under setting [2] is 20.6 µM [rising, single point].
Consider `O=C(CCl)Nc1ccc(N=Nc2ccccc2)cc1`, for which the AC50 under setting [1] was 9.2 µM [falling, partial curve].
As to `O=C(O)c1ccccc1C(=O)Nc1ccc(S(=O)(=O)NC2CCCCC2)cc1`, the cell number change was -1.31%. The AC50 under setting [1] was 0.013 µM [falling, full curve, poor fit].
For `COc1ccc(NC(=O)CC2C(=O)N(C)C(=S)N2CCc2ccccc2F)cc1` (stereo not drawn), under setting [1], the concentration at half-maximal activity (AC50) is 0.651 µM [rising, single point].
Turning to `COc1cc(-c2cc(=O)c3ccccc3o2)ccc1O`, the cell number change is -18.5%. For the same compound, the AC50 under setting [1] is 7.31 µM [falling, partial curve, poor fit].
Turning to `Cc1cc(C)cc(N(C(=O)c2csnn2)C(C(=O)NC(C)(C)C)c2cccnc2)c1` (stereo not drawn), the cell number change is -21.6%. In addition, the AC50 under setting [1] was 1.46 µM [falling, partial curve, poor fit].
On to `COC(=O)c1ccc(CNCC(=O)Nc2ccc(C(=O)OC)cc2)cc1`, for which the cell number change was determined as 2.84%. Under setting [1], the AC50 was 0.651 µM [falling, single point].
`O=C(OCc1cc2ccccc2[nH]c1=O)c1ccc([N+](=O)[O-])cc1`: the cell number change was -25.8%. Moreover, the AC50 under setting [1] is 29.1 µM [falling, single point].
As for `Cc1ccc(S(=O)(=O)N2CCN(C(=O)C(F)(F)F)C2c2ccc(N(C)C)cc2)cc1` (stereo not drawn), the cell number change was 12.8%. Moreover, the AC50 under setting [1] is 1.64 µM [falling, partial curve, poor fit].
Regarding `Cn1c(C(=O)NCCCN2CCc3ccccc3C2)cc2c(=O)n(C)c3ccccc3c21`, the cell number change is -74%. For the same compound, under setting [2], the AC50 was 18.4 µM [falling, single point]. Besides, the AC50 under setting [1] was 0.146 µM [rising, full curve, poor fit].
With `O=C(NNc1ccc(C2CCCCC2)cc1)C(O)(c1ccccc1)c1cccs1` (stereo not drawn), the cell number change was -42.3%. Also, the AC50 under setting [2] was 18.4 µM [falling, single point]. Besides, the AC50 under setting [1] was 14.6 µM [falling, single point].
As to `COc1ccc(NC(=O)N2CCN(c3cccc(C(F)(F)F)c3)CC2)cc1OC`, the cell number change was found to be 10.7%. Further, the AC50 under setting [1] was 14.6 µM [falling, partial curve, poor fit].
For `CCOc1cc(/C=C2\CCn3c2nc2cc(Cl)ccc2c3=O)ccc1O`, the cell number change is 32.8%. The AC50 under setting [2] was 0.651 µM [rising, full curve, poor fit]. The AC50 under setting [1] is 29.1 µM [falling, single point].
For the compound `COc1ccc2cc(C(c3nnnn3C3CCCC3)N3CCc4ccccc4C3)c(=O)[nH]c2c1` (stereo not drawn), the cell number change is -1.75%. For the same compound, the AC50 under setting [1] was 29.1 µM [rising, single point].
